# Library screen at single concentrations

Measurements from “University of Dundee, Small-Polar-MMV Screening Library” (2021), ChEMBL document CHEMBL3988442.

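Assay of Toxoplasma gondii numbers, read through their beta-galactosidase reporter with a colour substrate. Compounds at 50 µM. The record gives no direction; the compounds picked for IC50 retests had high values, so higher reads as fewer parasites. Of about 18,000 compounds tested this way, about 170 (0.94%) reached 50% or more in at least one test.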

Each number is a percent effect as filed. The record does not define 0% and 100%; most values in the screen are far below 50% and negative numbers occur (in some assays of this library far below -100). Compounds were drawn at random from those tested, without regard to their results.

compound,Percent Effect
COc1cc(NC(=O)NCc2nncn2C)ccc1Br,-3.348
CC(=O)Nc1ccc(-n2cncn2)nc1,-6.105
[H][C@]12CNC[C@]([H])(CN(S(=O)(=O)c3ccc(OC)cc3)C1)O2,-2.543
CCOc1c(Br)cc(CNCCS(C)(=O)=O)cc1OC,-1.475
O=C(CN1CCCC1)NCC(=O)Nc1ccc(F)cc1,-18.82
CN(C)C(=O)OC1CCNC1 (centres unmarked),8.119
CC(CNC(=O)Nc1cn[nH]c1)N(C)C (centres unmarked),-3.915
CNC(=O)CSCCC1CCCCN1C (centres unmarked),7.858
COc1c(CNCCCN(C)S(C)(=O)=O)c(C)nn1C,-0.8369
Cc1c(Br)c(C(=O)NC(C)C)nn1C,-18.01
OCc1cn(CC2CC2)nn1,-3.01
Nc1nc(CCCNC(=O)C2CCCO2)cs1 (centres unmarked),9.485
NC1COC2(CCCCC2)C1 (centres unmarked),-2.722
COc1ccc(CCS(=O)(=O)c2nccn2C)cc1,5.226
O=C1CN(C(=O)CCOc2ccc(Cl)cc2)CCN1,0.5627
CCc1noc(C)c1C(=O)N1CCCN(C)CC1,-13.85
CN(C(=O)CSc1cnn[nH]1)c1ccccc1,-2.344
OCC1CCN(c2ncccc2NC2CCCC2)CC1,-23.66
CCn1cc(N)cn1,4.366
CCS(=O)(=O)N(C)CC(=O)Nc1cc(C)on1,-10.63
CC(=O)NCCCN1CCN(c2ccccc2F)CC1,-25.59
CC(C)(C(N)=O)c1ccc(-n2cc(CCO)cn2)cc1,-8.68
COCC(=O)N1CCCN(Cc2ncc[nH]2)CC1,-2.962
CN(Cc1ccc(Cl)s1)C(=O)CSCCN,2.236
CC(C)Oc1cc(Br)ccc1C(=O)N(C)CC(N)=O,19.13
Cc1cc(C(=O)Nc2cnn(C)c2)on1,0.4555
O=C(c1ccccc1F)N1CCNCC1,8.912
CCO[C@H]1CN(c2nc(-c3ccccc3)no2)C[C@@H]1O,10.54
CC1CNCCN1c1cccc2cnccc12 (centres unmarked),3.081
Cc1cccc(NC(=O)C2CC(=O)N(C(C)(C)C)C2)n1 (centres unmarked),-22.06
Cc1cc(C(=O)NCc2ccccn2)[nH]n1,9.736
CC1CN(CCS(C)(=O)=O)CCN1Cc1nccn1C (centres unmarked),-7.211
Cn1cc(Br)cc1C(=O)NCCC(O)C(F)(F)F (centres unmarked),7.946
COCCNC(=O)CN(C)CC(=O)N1CCOCC1,27.99
CCN(CC)C(=O)Nc1cc2c(cc1C)OCO2,-1.675

For reference, 4 entries once more:

| compound | Percent Effect |
|---|---|
| `CN(C(=O)CSc1cnn[nH]1)c1ccccc1` | -2.344 |
| `CCO[C@H]1CN(c2nc(-c3ccccc3)no2)C[C@@H]1O` | 10.54 |
| `CC(C)Oc1cc(Br)ccc1C(=O)N(C)CC(N)=O` | 19.13 |
| `CC(CNC(=O)Nc1cn[nH]c1)N(C)C` (centres unmarked) | -3.915 |